± gives the standard deviation of the averaged measurements. Values are relative to the signal before dosing, not to a vehicle control; the signal also falls without drug.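 Fibroblast labels name human fibroblasts: mostly primary ones from tissues such as uterus (C12385, HUF), lung (H6013), bone (Hs27A), adrenal (HADF) and skin (WS1), plus mammary HMF and breast cancer-associated Hs343T. The cancer cells are basal-like or mesenchymal-like triple-negative breast cancer lines. The paper calls a changed response a hit when it shifts by more than 3x the replicate standard deviation. The tissue of the other fibroblasts is not given here.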
Test system: MDAMB436
Assay: relative JC-1 red fluorescence (viability) vs pre-drug, coculture with fibroblast (fraction); higher = more viable cancer cells
Conditions: 100 µM
Protocol: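 JC-1 labelled TNBC cells cocultured 1:1 (1,500 cells each) with CellTrace Violet stained primary or stromal fibroblasts in 384-well plates in FluoroBrite medium, treated with one of 42 anticancer drugs at 0.1, 1, 10 or 100 uM. JC-1 red fluorescence (mitochondrial integrity in cancer cells only) was read by plate reader every 8 h for 72 h. Values are normalised to each well's pre-drug value. The stock of one drug was tenfold lower, so its dose labels may be too high.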

## O=c1[nH]cc(F)c(=O)[nH]1 [Fluorouracil]
8 h, coculture fibroblast: C12385
  relative JC-1 red fluorescence: 0.761 ± 0.021
8 h, coculture fibroblast: H6013
  relative JC-1 red fluorescence: 0.8252 ± 0.0016
8 h, coculture fibroblast: H6019
  relative JC-1 red fluorescence: 0.736 ± 0.019
8 h, coculture fibroblast: H6076
  relative JC-1 red fluorescence: 0.807 ± 0.028
8 h, coculture fibroblast: H6231
  relative JC-1 red fluorescence: 0.7582 ± 0.00084
8 h, coculture fibroblast: HADF
  relative JC-1 red fluorescence: 0.852 ± 0.068
8 h, coculture fibroblast: HCFa
  relative JC-1 red fluorescence: 0.752 ± 0.044
8 h, coculture fibroblast: HCPF
  relative JC-1 red fluorescence: 0.78 ± 0.0013
8 h, coculture fibroblast: HHSteC
  relative JC-1 red fluorescence: 0.786 ± 0.032
8 h, coculture fibroblast: HMF
  relative JC-1 red fluorescence: 0.786 ± 0.021
8 h, coculture fibroblast: HPFa
  relative JC-1 red fluorescence: 0.8846 ± 0.0055
8 h, coculture fibroblast: HUF
  relative JC-1 red fluorescence: 0.82824 ± 0.00015
8 h, coculture fibroblast: Hs5
  relative JC-1 red fluorescence: 0.8273 ± 0.0011
8 h, coculture fibroblast: Hs27A
  relative JC-1 red fluorescence: 0.819 ± 0.047
8 h, coculture fibroblast: Hs343T
  relative JC-1 red fluorescence: 0.764 ± 0.026
8 h, coculture fibroblast: WS1
  relative JC-1 red fluorescence: 0.743 ± 0.0087
16 h, coculture fibroblast: C12385
  relative JC-1 red fluorescence: 0.74 ± 0.034
16 h, coculture fibroblast: H6013
  relative JC-1 red fluorescence: 0.7232 ± 0.0018
16 h, coculture fibroblast: H6019
  relative JC-1 red fluorescence: 0.726 ± 0.03
16 h, coculture fibroblast: H6076
  relative JC-1 red fluorescence: 0.63 ± 0.022
16 h, coculture fibroblast: H6231
  relative JC-1 red fluorescence: 0.663 ± 0.0059
16 h, coculture fibroblast: HADF
  relative JC-1 red fluorescence: 0.799 ± 0.17
16 h, coculture fibroblast: HCFa
  relative JC-1 red fluorescence: 0.67028 ± 0.00038
16 h, coculture fibroblast: HCPF
  relative JC-1 red fluorescence: 0.651 ± 0.08
16 h, coculture fibroblast: HHSteC
  relative JC-1 red fluorescence: 0.741 ± 0.018
16 h, coculture fibroblast: HMF
  relative JC-1 red fluorescence: 0.6107 ± 0.006
16 h, coculture fibroblast: HPFa
  relative JC-1 red fluorescence: 0.805 ± 0.027
16 h, coculture fibroblast: HUF
  relative JC-1 red fluorescence: 0.727 ± 0.012
16 h, coculture fibroblast: Hs5
  relative JC-1 red fluorescence: 0.689 ± 0.019
16 h, coculture fibroblast: Hs27A
  relative JC-1 red fluorescence: 0.764 ± 0.07
16 h, coculture fibroblast: Hs343T
  relative JC-1 red fluorescence: 0.599 ± 0.0024
16 h, coculture fibroblast: WS1
  relative JC-1 red fluorescence: 0.7243 ± 0.0015
24 h, coculture fibroblast: C12385
  relative JC-1 red fluorescence: 0.726 ± 0.044
24 h, coculture fibroblast: H6013
  relative JC-1 red fluorescence: 0.71 ± 0.015
24 h, coculture fibroblast: H6019
  relative JC-1 red fluorescence: 0.724 ± 0.028
24 h, coculture fibroblast: H6076
  relative JC-1 red fluorescence: 0.6134 ± 0.0018
24 h, coculture fibroblast: H6231
  relative JC-1 red fluorescence: 0.601 ± 0.015
24 h, coculture fibroblast: HADF
  relative JC-1 red fluorescence: 0.821 ± 0.21
24 h, coculture fibroblast: HCFa
  relative JC-1 red fluorescence: 0.628 ± 0.018
24 h, coculture fibroblast: HCPF
  relative JC-1 red fluorescence: 0.62 ± 0.014
24 h, coculture fibroblast: HHSteC
  relative JC-1 red fluorescence: 0.708 ± 0.034
24 h, coculture fibroblast: HMF
  relative JC-1 red fluorescence: 0.5735 ± 0.0051
24 h, coculture fibroblast: HPFa
  relative JC-1 red fluorescence: 0.778 ± 0.029
24 h, coculture fibroblast: HUF
  relative JC-1 red fluorescence: 0.717 ± 0.015
24 h, coculture fibroblast: Hs5
  relative JC-1 red fluorescence: 0.64 ± 0.047
24 h, coculture fibroblast: Hs27A
  relative JC-1 red fluorescence: 0.754 ± 0.077
24 h, coculture fibroblast: Hs343T
  relative JC-1 red fluorescence: 0.528 ± 0.0057
24 h, coculture fibroblast: WS1
  relative JC-1 red fluorescence: 0.706 ± 0.023
32 h, coculture fibroblast: C12385
  relative JC-1 red fluorescence: 0.652 ± 0.046
32 h, coculture fibroblast: H6013
  relative JC-1 red fluorescence: 0.705 ± 0.011
32 h, coculture fibroblast: H6019
  relative JC-1 red fluorescence: 0.671 ± 0.029
32 h, coculture fibroblast: H6076
  relative JC-1 red fluorescence: 0.566 ± 0.011
32 h, coculture fibroblast: H6231
  relative JC-1 red fluorescence: 0.5497 ± 0.0026
32 h, coculture fibroblast: HADF
  relative JC-1 red fluorescence: 0.816 ± 0.25
32 h, coculture fibroblast: HCFa
  relative JC-1 red fluorescence: 0.585 ± 0.017
32 h, coculture fibroblast: HCPF
  relative JC-1 red fluorescence: 0.565 ± 0.022
32 h, coculture fibroblast: HHSteC
  relative JC-1 red fluorescence: 0.67 ± 0.044
32 h, coculture fibroblast: HMF
  relative JC-1 red fluorescence: 0.523 ± 0.014
32 h, coculture fibroblast: HPFa
  relative JC-1 red fluorescence: 0.735 ± 0.027
32 h, coculture fibroblast: HUF
  relative JC-1 red fluorescence: 0.6479 ± 0.0025
32 h, coculture fibroblast: Hs5
  relative JC-1 red fluorescence: 0.578 ± 0.057
32 h, coculture fibroblast: Hs27A
  relative JC-1 red fluorescence: 0.739 ± 0.08
32 h, coculture fibroblast: Hs343T
  relative JC-1 red fluorescence: 0.469 ± 0.0052
32 h, coculture fibroblast: WS1
  relative JC-1 red fluorescence: 0.635 ± 0.029
40 h, coculture fibroblast: C12385
  relative JC-1 red fluorescence: 0.617 ± 0.038
40 h, coculture fibroblast: H6013
  relative JC-1 red fluorescence: 0.702 ± 0.028
40 h, coculture fibroblast: H6019
  relative JC-1 red fluorescence: 0.649 ± 0.038
40 h, coculture fibroblast: H6076
  relative JC-1 red fluorescence: 0.54 ± 0.023
40 h, coculture fibroblast: H6231
  relative JC-1 red fluorescence: 0.512 ± 0.013
40 h, coculture fibroblast: HADF
  relative JC-1 red fluorescence: 0.759 ± 0.18
40 h, coculture fibroblast: HCFa
  relative JC-1 red fluorescence: 0.568 ± 0.033
40 h, coculture fibroblast: HCPF
  relative JC-1 red fluorescence: 0.531 ± 0.02
40 h, coculture fibroblast: HHSteC
  relative JC-1 red fluorescence: 0.674 ± 0.048
40 h, coculture fibroblast: HMF
  relative JC-1 red fluorescence: 0.491 ± 0.017
40 h, coculture fibroblast: HPFa
  relative JC-1 red fluorescence: 0.73 ± 0.026
40 h, coculture fibroblast: HUF
  relative JC-1 red fluorescence: 0.595 ± 0.0076
40 h, coculture fibroblast: Hs5
  relative JC-1 red fluorescence: 0.547 ± 0.066
40 h, coculture fibroblast: Hs27A
  relative JC-1 red fluorescence: 0.717 ± 0.074
40 h, coculture fibroblast: Hs343T
  relative JC-1 red fluorescence: 0.423 ± 0.0098
40 h, coculture fibroblast: WS1
  relative JC-1 red fluorescence: 0.597 ± 0.032
48 h, coculture fibroblast: C12385
  relative JC-1 red fluorescence: 0.603 ± 0.036
48 h, coculture fibroblast: H6013
  relative JC-1 red fluorescence: 0.72 ± 0.025
48 h, coculture fibroblast: H6019
  relative JC-1 red fluorescence: 0.634 ± 0.046
48 h, coculture fibroblast: H6076
  relative JC-1 red fluorescence: 0.503 ± 0.019
48 h, coculture fibroblast: H6231
  relative JC-1 red fluorescence: 0.476 ± 0.0086
48 h, coculture fibroblast: HADF
  relative JC-1 red fluorescence: 0.744 ± 0.15
48 h, coculture fibroblast: HCFa
  relative JC-1 red fluorescence: 0.582 ± 0.029
48 h, coculture fibroblast: HCPF
  relative JC-1 red fluorescence: 0.491 ± 0.013
48 h, coculture fibroblast: HHSteC
  relative JC-1 red fluorescence: 0.684 ± 0.048
48 h, coculture fibroblast: HMF
  relative JC-1 red fluorescence: 0.451 ± 0.023
48 h, coculture fibroblast: HPFa
  relative JC-1 red fluorescence: 0.746 ± 0.028
48 h, coculture fibroblast: HUF
  relative JC-1 red fluorescence: 0.56904 ± 2.4e-05
48 h, coculture fibroblast: Hs5
  relative JC-1 red fluorescence: 0.51 ± 0.069
48 h, coculture fibroblast: Hs27A
  relative JC-1 red fluorescence: 0.776 ± 0.067
48 h, coculture fibroblast: Hs343T
  relative JC-1 red fluorescence: 0.382 ± 0.0056
48 h, coculture fibroblast: WS1
  relative JC-1 red fluorescence: 0.58 ± 0.031
56 h, coculture fibroblast: C12385
  relative JC-1 red fluorescence: 0.588 ± 0.034
56 h, coculture fibroblast: H6013
  relative JC-1 red fluorescence: 0.688 ± 0.026
56 h, coculture fibroblast: H6019
  relative JC-1 red fluorescence: 0.608 ± 0.042
56 h, coculture fibroblast: H6076
  relative JC-1 red fluorescence: 0.502 ± 0.018
56 h, coculture fibroblast: H6231
  relative JC-1 red fluorescence: 0.468 ± 0.016
56 h, coculture fibroblast: HADF
  relative JC-1 red fluorescence: 0.709 ± 0.16
56 h, coculture fibroblast: HCFa
  relative JC-1 red fluorescence: 0.525 ± 0.029
56 h, coculture fibroblast: HCPF
  relative JC-1 red fluorescence: 0.467 ± 0.021
56 h, coculture fibroblast: HHSteC
  relative JC-1 red fluorescence: 0.633 ± 0.049
56 h, coculture fibroblast: HMF
  relative JC-1 red fluorescence: 0.446 ± 0.029
56 h, coculture fibroblast: HPFa
  relative JC-1 red fluorescence: 0.673 ± 0.018
56 h, coculture fibroblast: HUF
  relative JC-1 red fluorescence: 0.5455 ± 0.0013
56 h, coculture fibroblast: Hs5
  relative JC-1 red fluorescence: 0.511 ± 0.07
56 h, coculture fibroblast: Hs27A
  relative JC-1 red fluorescence: 0.695 ± 0.064
56 h, coculture fibroblast: Hs343T
  relative JC-1 red fluorescence: 0.371 ± 0.014
56 h, coculture fibroblast: WS1
  relative JC-1 red fluorescence: 0.569 ± 0.045
64 h, coculture fibroblast: C12385
  relative JC-1 red fluorescence: 0.58 ± 0.036
64 h, coculture fibroblast: H6013
  relative JC-1 red fluorescence: 0.675 ± 0.034
64 h, coculture fibroblast: H6019
  relative JC-1 red fluorescence: 0.589 ± 0.044
64 h, coculture fibroblast: H6076
  relative JC-1 red fluorescence: 0.491 ± 0.025
64 h, coculture fibroblast: H6231
  relative JC-1 red fluorescence: 0.457 ± 0.016
64 h, coculture fibroblast: HADF
  relative JC-1 red fluorescence: 0.642 ± 0.074
64 h, coculture fibroblast: HCFa
  relative JC-1 red fluorescence: 0.52 ± 0.027
64 h, coculture fibroblast: HCPF
  relative JC-1 red fluorescence: 0.451 ± 0.025
64 h, coculture fibroblast: HHSteC
  relative JC-1 red fluorescence: 0.618 ± 0.062
64 h, coculture fibroblast: HMF
  relative JC-1 red fluorescence: 0.432 ± 0.035
64 h, coculture fibroblast: HPFa
  relative JC-1 red fluorescence: 0.659 ± 0.012
64 h, coculture fibroblast: HUF
  relative JC-1 red fluorescence: 0.537 ± 0.009
64 h, coculture fibroblast: Hs5
  relative JC-1 red fluorescence: 0.497 ± 0.066
64 h, coculture fibroblast: Hs27A
  relative JC-1 red fluorescence: 0.686 ± 0.063
64 h, coculture fibroblast: Hs343T
  relative JC-1 red fluorescence: 0.358 ± 0.0065
64 h, coculture fibroblast: WS1
  relative JC-1 red fluorescence: 0.545 ± 0.038
72 h, coculture fibroblast: C12385
  relative JC-1 red fluorescence: 0.578 ± 0.029
72 h, coculture fibroblast: H6013
  relative JC-1 red fluorescence: 0.634 ± 0.03
72 h, coculture fibroblast: H6019
  relative JC-1 red fluorescence: 0.572 ± 0.046
72 h, coculture fibroblast: H6076
  relative JC-1 red fluorescence: 0.478 ± 0.027
72 h, coculture fibroblast: H6231
  relative JC-1 red fluorescence: 0.442 ± 0.016
72 h, coculture fibroblast: HADF
  relative JC-1 red fluorescence: 0.758 ± 0.3
72 h, coculture fibroblast: HCFa
  relative JC-1 red fluorescence: 0.477 ± 0.02
72 h, coculture fibroblast: HCPF
  relative JC-1 red fluorescence: 0.435 ± 0.021
72 h, coculture fibroblast: HHSteC
  relative JC-1 red fluorescence: 0.569 ± 0.051
72 h, coculture fibroblast: HMF
  relative JC-1 red fluorescence: 0.423 ± 0.036
72 h, coculture fibroblast: HPFa
  relative JC-1 red fluorescence: 0.6 ± 0.0084
72 h, coculture fibroblast: HUF
  relative JC-1 red fluorescence: 0.53 ± 0.015
72 h, coculture fibroblast: Hs5
  relative JC-1 red fluorescence: 0.481 ± 0.056
72 h, coculture fibroblast: Hs27A
  relative JC-1 red fluorescence: 0.625 ± 0.052
72 h, coculture fibroblast: Hs343T
  relative JC-1 red fluorescence: 0.3542 ± 0.0031
72 h, coculture fibroblast: WS1
  relative JC-1 red fluorescence: 0.538 ± 0.038

— the supplement of paper PMC6078165
